Results published in paper PMC7434441.
No constants are given. Whether binding was seen depends on the method and setting. Binding seen in cells or lysates may run through a third protein. Some results given as binding are weak or reduced against the parent protein; the word gives no strength. For some assays here: Sequences can lack the tags named with a protein.

T1: BCL9-HA (UniProt O00512)
T1 sequence: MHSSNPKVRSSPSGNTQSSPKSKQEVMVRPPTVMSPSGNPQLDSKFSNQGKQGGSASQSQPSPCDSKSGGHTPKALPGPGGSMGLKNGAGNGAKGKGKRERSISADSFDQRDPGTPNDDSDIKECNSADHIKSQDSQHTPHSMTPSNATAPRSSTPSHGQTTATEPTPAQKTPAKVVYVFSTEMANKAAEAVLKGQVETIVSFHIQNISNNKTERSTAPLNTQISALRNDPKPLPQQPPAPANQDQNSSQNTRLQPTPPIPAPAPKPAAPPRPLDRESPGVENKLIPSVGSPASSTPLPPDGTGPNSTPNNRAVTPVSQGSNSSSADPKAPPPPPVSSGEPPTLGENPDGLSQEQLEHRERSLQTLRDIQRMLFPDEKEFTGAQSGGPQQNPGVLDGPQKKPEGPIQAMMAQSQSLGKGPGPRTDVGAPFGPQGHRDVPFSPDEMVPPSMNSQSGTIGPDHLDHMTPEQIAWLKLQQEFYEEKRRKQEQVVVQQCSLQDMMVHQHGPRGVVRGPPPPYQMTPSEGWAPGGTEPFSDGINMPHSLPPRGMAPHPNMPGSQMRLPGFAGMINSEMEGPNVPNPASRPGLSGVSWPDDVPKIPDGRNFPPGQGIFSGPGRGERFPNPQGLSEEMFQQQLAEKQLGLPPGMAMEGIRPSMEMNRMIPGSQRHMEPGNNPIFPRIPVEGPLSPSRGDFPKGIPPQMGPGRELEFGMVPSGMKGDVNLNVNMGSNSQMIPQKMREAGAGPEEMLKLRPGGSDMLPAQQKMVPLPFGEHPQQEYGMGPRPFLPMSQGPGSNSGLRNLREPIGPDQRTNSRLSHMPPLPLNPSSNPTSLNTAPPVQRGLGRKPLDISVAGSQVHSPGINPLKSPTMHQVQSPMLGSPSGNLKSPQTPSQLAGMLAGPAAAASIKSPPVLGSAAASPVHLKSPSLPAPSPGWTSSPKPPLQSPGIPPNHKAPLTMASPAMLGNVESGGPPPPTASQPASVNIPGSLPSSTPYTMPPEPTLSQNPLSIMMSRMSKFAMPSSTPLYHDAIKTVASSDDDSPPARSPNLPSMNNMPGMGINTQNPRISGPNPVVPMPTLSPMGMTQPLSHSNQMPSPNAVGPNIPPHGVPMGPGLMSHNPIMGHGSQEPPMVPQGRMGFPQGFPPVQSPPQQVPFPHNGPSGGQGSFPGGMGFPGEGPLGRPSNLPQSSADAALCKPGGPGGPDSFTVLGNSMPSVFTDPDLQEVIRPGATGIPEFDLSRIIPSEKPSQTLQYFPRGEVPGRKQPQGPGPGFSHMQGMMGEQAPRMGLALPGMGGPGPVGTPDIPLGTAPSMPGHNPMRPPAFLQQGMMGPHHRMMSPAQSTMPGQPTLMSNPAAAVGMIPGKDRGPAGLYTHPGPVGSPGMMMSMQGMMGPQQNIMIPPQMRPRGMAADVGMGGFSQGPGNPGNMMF

T2: BCL9 (full-length, endogenous in control mouse colorectal tumors) (mouse (endogenous in mouse colorectal tumors)) (UniProt Q9D219)
T2 sequence: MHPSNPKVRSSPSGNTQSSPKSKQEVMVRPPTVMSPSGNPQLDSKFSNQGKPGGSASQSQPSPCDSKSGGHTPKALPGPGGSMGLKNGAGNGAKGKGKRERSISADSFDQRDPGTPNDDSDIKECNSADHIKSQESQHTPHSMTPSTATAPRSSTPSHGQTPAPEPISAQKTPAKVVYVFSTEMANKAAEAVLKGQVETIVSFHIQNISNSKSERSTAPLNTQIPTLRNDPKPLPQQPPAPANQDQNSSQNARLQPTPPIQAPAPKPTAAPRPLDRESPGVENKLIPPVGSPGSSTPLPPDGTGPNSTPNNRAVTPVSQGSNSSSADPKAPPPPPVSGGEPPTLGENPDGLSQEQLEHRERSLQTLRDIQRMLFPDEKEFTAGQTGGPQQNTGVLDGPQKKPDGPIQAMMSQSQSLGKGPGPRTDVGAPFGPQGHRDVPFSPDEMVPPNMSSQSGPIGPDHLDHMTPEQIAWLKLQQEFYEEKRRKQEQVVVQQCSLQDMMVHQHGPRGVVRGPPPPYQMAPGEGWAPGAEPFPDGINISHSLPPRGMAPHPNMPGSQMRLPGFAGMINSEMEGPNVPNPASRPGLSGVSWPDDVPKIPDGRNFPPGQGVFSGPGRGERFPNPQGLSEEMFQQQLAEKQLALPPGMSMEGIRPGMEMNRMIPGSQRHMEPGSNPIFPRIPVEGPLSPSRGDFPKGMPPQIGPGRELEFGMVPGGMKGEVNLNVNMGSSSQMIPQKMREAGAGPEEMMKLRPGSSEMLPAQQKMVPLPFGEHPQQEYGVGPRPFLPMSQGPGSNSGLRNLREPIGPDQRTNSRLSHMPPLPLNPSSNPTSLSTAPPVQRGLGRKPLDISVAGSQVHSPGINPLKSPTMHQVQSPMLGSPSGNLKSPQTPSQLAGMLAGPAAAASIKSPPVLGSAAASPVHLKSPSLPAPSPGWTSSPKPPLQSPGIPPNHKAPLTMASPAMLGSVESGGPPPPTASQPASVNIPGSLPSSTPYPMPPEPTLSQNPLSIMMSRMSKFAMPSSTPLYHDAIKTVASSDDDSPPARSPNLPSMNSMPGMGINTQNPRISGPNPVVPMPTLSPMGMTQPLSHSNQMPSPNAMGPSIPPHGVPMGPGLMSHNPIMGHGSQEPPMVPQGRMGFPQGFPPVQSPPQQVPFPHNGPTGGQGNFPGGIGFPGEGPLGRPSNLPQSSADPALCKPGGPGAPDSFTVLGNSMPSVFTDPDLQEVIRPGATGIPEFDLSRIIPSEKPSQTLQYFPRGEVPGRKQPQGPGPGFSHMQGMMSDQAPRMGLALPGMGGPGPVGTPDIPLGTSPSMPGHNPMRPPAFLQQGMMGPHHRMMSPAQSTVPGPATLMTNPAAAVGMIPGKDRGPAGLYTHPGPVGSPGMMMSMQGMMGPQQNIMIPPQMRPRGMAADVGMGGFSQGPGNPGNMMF


Assays:
[1] = target: T1, BCL9-HA; experiment: proximity ligation; NaveniFlex MR in situ PLA in transiently transfected HEK293T cells on coverslips; rabbit anti-HA paired with mouse anti-FLAG or anti-GFP; plasmids 1:1
[2] = target: T2, BCL9 (full-length, endogenous in control mouse colorectal tumors) (mouse (endogenous in mouse colorectal tumors)); experiment: co-IP; the same anti-BCL9 immunoprecipitates of control or Bcl9/9l-ΔHD1 mouse tumor extracts, SDS-PAGE and blot probed with anti-TBX3

| binding [1] | binding [2] | Binder |
| --- | --- | --- |
| binds | – | TBX3-3xflag (protein, UniProt O15119 1-743) MSLSMRDPVIPGTSMAYHPFLPHRAPDFAMSAVLGHQPPFFPALTLPPNGAAALSLPGALAKPIMDQLVGAAETGIPFSSLGPQAHLRPLKTMEPEEEVEDDPKVHLEAKELWDQFHKRGTEMVITKSGRRMFPPFKVRCSGLDKKAKYILLMDIIAADDCRYKFHNSRWMVAGKADPEMPKRMYIHPDSPATGEQWMSKVVTFHKLKLTNNISDKHGFTLAFPSDHATWQGNYSFGTQTILNSMHKYQPRFHIVRANDILKLPYSTFRTYLFPETEFIAVTAYQNDKITQLKIDNNPFAKGFRDTGNGRREKRKQLTLQSMRVFDERHKKENGTSDESSSEQAAFNCFAQASSPAASTVGTSNLKDLCPSEGESDAEAESKEEHGPEACDAAKISTTTSEEPCRDKGSPAVKAHLFAAERPRDSGRLDKASPDSRHSPATISSSTRGLGAEERRSPVREGTAPAKVEEARALPGKEAFAPLTVQTDAAAAHLAQGPLPGLGFAPGLAGQQFFNGHPLFLHPSQFAMGGAFSSMAAAGMGPLLATVSGASTGVSGLDSTAMASAAAAQGLSGASAATLPFHLQQHVLASQGLAMSPFGSLFPYPYTYMAAAAAASSAAASSSVHRHPFLNLNTMRPRLRYSPYSIPVPVPDGSSLLTTALPSMAAAAGPLDGKVAALAASPASVAVDSGSELNSRSSTLSSSSMSLSPKLCAEKEAATSELQSIQRLVSGLEAKPDRSRSASP |
| – | binds | TBX3 (endogenous in mouse colorectal tumors) (protein, UniProt P70324 1-741) MSLSMRDPVIPGTSMAYHPFLPHRAPDFAMSAVLGHQPPFFPALTLPPNGAAALSLPGALAKPIMDQLVGAAETGIPFSSLGPQAHLRPLKTMEPEEDVEDDPKVHLEAKELWDQFHKRGTEMVITKSGRRMFPPFKVRCSGLDKKAKYILLMDIIAADDCRYKFHNSRWMVAGKADPEMPKRMYIHPDSPATGEQWMSKVVTFHKLKLTNNISDKHGFTLAFPSDHATWQGNYSFGTQTILNSMHKYQPRFHIVRANDILKLPYSTFRTYLFPETEFIAVTAYQNDKITQLKIDNNPFAKGFRDTGNGRREKRKQLTLQSMRVFEERHKKETSDESSSEQAAFNCFAQASSPAVSIVGTSNLKDLCPSEAESDAEAESKEEHGPEACDAAKISTTTAEEPGRDKGSPATRAQLFPAEPSRARDTARLDKASPDSRHSPATISSSTRVPGADERRSPGREGPVATKVDEARAIPAKDAFAPLSVQTDATAHLAQGPLPGLGFAPGLAGQQFFNGHPLFLHPGQFAMGGAFSSMAAGMGPLLATVSGASTGVSGLESTAMASAAAAQGLSGASAATLPFHLQQHVLASQGLAMSPFGSLFPYPYTYMAAAAAASTAAASSSVHRHPFLNLNSMRPRLRYSPYSIPVPVPDSSSLLATALPSMASAAGPLDGKAAALAASPASVAVDSGSELNSRSSTLSSGSVSLSPKLCSEKEAATSELQSIQRLVSGLEAKPDRSCSGSP |
